Data source: PubChem BioAssay AID1259254 (NCATS, 2017)
The whole screen tested about 59,000 reagents; this is an unselected part. About 1,550 of them (2.6%) were called active. 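G2 share is only a proxy for re-replication; each gene was hit by three separate siRNAs, and active genes were retested.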 Unmarked entries are inactive. The numbers tell different reagents against one gene apart. Not all columns of the deposit are shown. The record does not give: the amount of reagent.

Aim: 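Genome-wide screen for genes that prevent DNA re-replication in cancer cells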 (primary screen)
System: human HCT116 colorectal cancer cells
Knock-down reagent: single siRNA against human genes
Time to read-out: 3 days
Measurement: 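Imaged Hoechst DNA stain sorts each cell into a cycle phase by DNA amount; per plate, G2 fraction set to 0% for non-targeting and 100% for GMNN siRNA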
Reading the numbers: G2 robust z-score: higher = more G2 cells, more excess DNA replication
Active means: 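Active siRNAs have a G2 robust z of 5 or more median absolute deviations over the median, which in these data means about 38% or higher of GMNN control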

{"Gene": "ATRX", "reagent no.": 1, "G2 robust z-score": 2.97}
{"Gene": "ATRX", "reagent no.": 2, "G2 robust z-score": 0.134}
{"Gene": "ATRX", "reagent no.": 3, "G2 robust z-score": -0.688}
{"Gene": "NDUFB7", "reagent no.": 1, "G2 robust z-score": 0.614}
{"Gene": "NDUFB7", "reagent no.": 2, "G2 robust z-score": 1.5}
{"Gene": "NDUFB7", "reagent no.": 3, "G2 robust z-score": -1.27}
{"Gene": "THOC6", "reagent no.": 1, "G2 robust z-score": 0.69}
{"Gene": "THOC6", "reagent no.": 2, "G2 robust z-score": 3.08}
{"Gene": "THOC6", "reagent no.": 3, "G2 robust z-score": 0.538}
{"Gene": "LRRC2", "reagent no.": 1, "G2 robust z-score": -0.167}
{"Gene": "LRRC2", "reagent no.": 2, "G2 robust z-score": 0.81}
{"Gene": "LRRC2", "reagent no.": 3, "G2 robust z-score": 0.203}
{"Gene": "F2RL3", "reagent no.": 1, "G2 robust z-score": 3.54}
{"Gene": "F2RL3", "reagent no.": 2, "G2 robust z-score": -0.875}
{"Gene": "F2RL3", "reagent no.": 3, "G2 robust z-score": -0.711}
{"Gene": "SELENOM", "reagent no.": 1, "G2 robust z-score": 1.47}
{"Gene": "SELENOM", "reagent no.": 2, "G2 robust z-score": -1.2}
{"Gene": "SELENOM", "reagent no.": 3, "G2 robust z-score": -0.51}

2 entries from above in another layout.
NDUFB7 #2
- G2 robust z-score: 1.5

NDUFB7 #3
- G2 robust z-score: -1.27
